Data set [1] can be described thus: general procedure: Fmoc solid-phase peptide synthesis; Rink amide; arginine-pre-loaded Wang resin; TBACl / TCCA activation of S-ethyl thiocarbazates in DCM.
Data set [2] in a line: peptide made by a vendor (Fmoc solid-phase peptide synthesis; Rink amide; arginine-pre-loaded Wang resin; TBACl / TCCA activation of S-ethyl thiocarbazates in DCM). The note with it: whole synthesis, 215 nm.
Data set [3] in a line: general procedure: Fmoc solid-phase peptide synthesis; Rink amide; TBACl / TCCA activation of S-ethyl thiocarbazates in DCM. The note with it: whole synthesis, HPLC (254 nm, 215 nm), scale 0.4 mmol.
[4] abbreviates: whole synthesis, HPLC (254 nm, 215 nm), scale 0.1 mmol.
Where [5] appears, read: late stage modification step, 215 nm.

Some peptides are written in HELM: one residue between dots, names in brackets for other building blocks, links after the first $. Numbered stars: 1 amine (or outer) side, 2 acyl side, 3 side chain; on linkers, the order of the positions; unused ones are H or OH. Square brackets hold non-standard residues; d marks the D form. Ends that are not written are not given here. azaPhe = O=C(N(Cc1ccccc1)N[*:1])[*:2]; azaPro = O=C(N1CCCN1[*:1])[*:2]; azaGly = NNC(=O)O

Consider “H-RPPG[azaPhe]SPFR-OH (N-terminus and C-terminus assumed; SMILES N=C(N)NCCC[C@H](NC(=O)[C@H](Cc1ccccc1)NC(=O)[C@@H]1CCCN1C(=O)[C@H](CO)NC(=O)N(Cc1ccccc1)NC(=O)CNC(=O)[C@@H]1CCCN1C(=O)[C@@H]1CCCN1C(=O)[C@@H](N)CCCNC(=N)N)C(=O)O)”, for which, in data set [1] (whole synthesis), the isolated yield worked out at 16.5%. In data set [1] (whole synthesis, 215 nm), the “crude HPLC purity” value amounted to 66.0% and the “final HPLC purity” value is listed as 95.3%. Moreover, the “crude purity (method not given)” value in data set [1] (setting [4]) amounted to 66% crude purity.
Taken in the same sequence, the figures for “H-RPPG[azaPhe]SP[azaPhe]R-OH (N-terminus and C-terminus assumed; SMILES N=C(N)NCCC[C@H](NC(=O)N(Cc1ccccc1)NC(=O)[C@@H]1CCCN1C(=O)[C@H](CO)NC(=O)N(Cc1ccccc1)NC(=O)CNC(=O)[C@@H]1CCCN1C(=O)[C@@H]1CCCN1C(=O)[C@@H](N)CCCNC(=N)N)C(=O)O)” were 17.7%, 66.0%, 95.3% and 66%.
For “H-RPP[azaGly]FSPFR-OH (N-terminus and C-terminus assumed; SMILES N=C(N)NCCC[C@H](NC(=O)[C@H](Cc1ccccc1)NC(=O)[C@@H]1CCCN1C(=O)[C@H](CO)NC(=O)[C@H](Cc1ccccc1)NC(=O)NNC(=O)[C@@H]1CCCN1C(=O)[C@@H]1CCCN1C(=O)[C@@H](N)CCCNC(=N)N)C(=O)O)”, in that order: 17.7%, 34.0%, 97.6% and 34% crude purity.
On to PEPTIDE1{F.S.S.E.[am]}$$$$V2.0, for which the “final HPLC purity” value in data set [2] worked out at 95.9%.
In data set [1] (late stage modification step), PEPTIDE1{F.S.S.[azE].[am]}$$$$V2.0 showed a step yield of 46.0%. Also, the “final HPLC purity” value in data set [1] (setting [5]) was 97.8%. Also, in data set [1] (whole synthesis, 254 nm), the “crude HPLC purity” value is 93.0%.
The substance PEPTIDE1{F.S.S.[azQ].[am]}$$$$V2.0 displayed a step yield in data set [1] (late stage modification step) of 39.0%. Further, the “final HPLC purity” value in data set [1] (setting [5]) was found to be 97.9%. In data set [1] (whole synthesis, 254 nm), the “crude HPLC purity” value is reported as 50.2%.
For PEPTIDE1{R.P.P.G.F.S.P.F.[azR]}$$$$V2.0, in data set [1] (whole synthesis), the isolated yield is given as 5.40%. In data set [1] (whole synthesis, 215 nm), the “crude HPLC purity” value is 19.2% and the “final HPLC purity” value came to 95.9%. Moreover, the “crude purity (method not given)” value in data set [1] (setting [4]) was 19.2%.
As for PEPTIDE1{R.P.P.G.F.S.[azP].F.R}$$$$V2.0, the isolated yield in data set [1] (whole synthesis) is given as 23.6%. In data set [1] (whole synthesis, 215 nm), the “crude HPLC purity” value is recorded as 49.6% and the “final HPLC purity” value is given as 95.0%. For the same substance, the “crude purity (method not given)” value in data set [1] (setting [4]) was 49.6% crude purity.
Consider PEPTIDE1{[azF].S.S.E.[am]}$$$$V2.0, for which the step yield in data set [1] (late stage modification step) came out at 29.5%. In addition, the “final HPLC purity” value in data set [1] (setting [5]) is on record as 96.4%. The “crude HPLC purity” value in data set [1] (whole synthesis, 254 nm) was determined as 76.0%.
Taken in the same sequence, the figures for PEPTIDE1{[azF].S.S.E}$$$$V2.0 were 63.0%, 98.0% and 90.2%.
For PEPTIDE1{[azF].S.S.Q.[am]}$$$$V2.0, in that order: 47.0%, 96.4% and 82.0%.
Taken in the same sequence, the figures for PEPTIDE1{[azF].S.S.Q}$$$$V2.0 were 29.5%, 95.8% and 71.0%.
The substance PEPTIDE1{[azF].S.S.[azE].[am]}$$$$V2.0 yielded a step yield in data set [1] (late stage modification step) of 20.6%. Moreover, in data set [1] (setting [5]), the “final HPLC purity” value came to 97.9%. Also, the “crude HPLC purity” value in data set [1] (whole synthesis, 254 nm) worked out at 67.0%.
In turn, PEPTIDE1{[azF].S.S.[azQ].[am]}$$$$V2.0 gave a step yield in data set [1] (late stage modification step) of 53.0%. Moreover, the “final HPLC purity” value in data set [1] (setting [5]) is 96.8%. Further, in data set [1] (whole synthesis, 254 nm), the “crude HPLC purity” value turned out to be 41.0%. For the same substance, the “crude purity (method not given)” value in data set [3] worked out at 41% crude purity.
Take PEPTIDE1{[azR].P.P.G.F.S.P.F.R}$$$$V2.0: the difficulty met entry in data set [1] (whole synthesis) is “found to be unstable after deprotection and purification”. Besides, the “crude HPLC purity” value in data set [1] (whole synthesis, 215 nm) turned out to be 85.0%; in data set [1] (setting [4]), 85.7% crude purity.
On to RPPGFSPFR, for which, in data set [1] (whole synthesis), the isolated yield is recorded as 48.0%. Further, in data set [1] (whole synthesis, 215 nm), the “crude HPLC purity” value came to 85.9% and the “final HPLC purity” value was 98.3%.
In turn, RPPGFSP[azaPhe]R displayed an isolated yield in data set [1] (whole synthesis) of 14.0%. Besides, in data set [1] (whole synthesis, 215 nm), the “crude HPLC purity” value is 68.4% and the “final HPLC purity” value is 97.6%. Besides, in data set [1] (whole synthesis, HPLC (254 nm, 215 nm)), the “crude purity (method not given)” value was found to be 68.4%.
Consider R[azaPro]PGFSPFR, for which, in data set [1] (whole synthesis), the isolated yield is recorded as 35.4%. Moreover, in data set [1] (whole synthesis, 215 nm), the “crude HPLC purity” value is reported as 38.0% and the “final HPLC purity” value was found to be 97.0%. For the same substance, the “crude purity (method not given)” value in data set [1] (setting [4]) is 38% crude purity.
Take R[azaPro]PGFSP[azaPhe]R: in data set [1] (whole synthesis), the isolated yield was found to be 21.0%. In data set [1] (whole synthesis, 215 nm), the “crude HPLC purity” value turned out to be 42.8% and the “final HPLC purity” value came to 98.5%. Moreover, in data set [1] (setting [4]), the “crude purity (method not given)” value is 42.8%.

Values taken from PMC9705435 (Nature Communications, 2022).
